Results are given in words; binding and its absence hold for the method and conditions named.
Biological target: TPLATE anchor (1062-1177) (Arabidopsis) (UniProt F4J8D3)
Test: SEC-MALS

Protein sequences, listed by entry. Tags and fused reporters are not part of them. Residues count along the entry.
UniProt F4J8D3, residues 1062-1176: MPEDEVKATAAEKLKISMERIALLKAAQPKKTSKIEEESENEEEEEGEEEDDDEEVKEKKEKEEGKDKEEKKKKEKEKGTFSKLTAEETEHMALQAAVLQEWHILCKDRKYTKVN

With “TPLATE anchor (1062-1177) (from UniProt F4J8D3 1062-1176) (domain or fragment)” the binding was “no binding (tested: 2.1 mg/ml)”.

Source: article doi:10.1101/2020.08.13.249276
